Values of other authors in patent US7829526B2, “Cardioinhibitory/antihypertensive novel endogenous physiologically active peptide” (Japan Science and Technology Agency, priority 2004, dated 2010).
Some entries share one result that the patent states for a list of compounds.

Tested on: SD rats
Details: after intravenous administration; cited from earlier work

Substance	time for reduced pressure and heart rate to return to a normal level
salusin-α: related peptide of 28 amino acids biosynthesized by processing of preprosalusin (SGALPPAPAAPRPALRAQRAGPAGPGAK; salusin-alpha)	10 to 15 min
salusin-β: related peptide of 20 amino acids biosynthesized by processing of preprosalusin (AIFIFIRWLLKLGHHGRAPP; salusin-beta)	10 to 15 min
